These are yes or no findings as the source states them, for the method shown. In cells and extracts the contact can be indirect. Some binding calls cover weakened binding; strength is not graded here. Tags and fused reporters may be left off the sequences shown.
Biological target: HA-tagged p85β (UniProt O00459)
Experiment: co-IP

Sequences of proteins named here, by UniProt entry; tags and fusion partners are left off. A change or cut given only in a name is not applied to a line headed by its entry.
UniProt O00459, whole entry: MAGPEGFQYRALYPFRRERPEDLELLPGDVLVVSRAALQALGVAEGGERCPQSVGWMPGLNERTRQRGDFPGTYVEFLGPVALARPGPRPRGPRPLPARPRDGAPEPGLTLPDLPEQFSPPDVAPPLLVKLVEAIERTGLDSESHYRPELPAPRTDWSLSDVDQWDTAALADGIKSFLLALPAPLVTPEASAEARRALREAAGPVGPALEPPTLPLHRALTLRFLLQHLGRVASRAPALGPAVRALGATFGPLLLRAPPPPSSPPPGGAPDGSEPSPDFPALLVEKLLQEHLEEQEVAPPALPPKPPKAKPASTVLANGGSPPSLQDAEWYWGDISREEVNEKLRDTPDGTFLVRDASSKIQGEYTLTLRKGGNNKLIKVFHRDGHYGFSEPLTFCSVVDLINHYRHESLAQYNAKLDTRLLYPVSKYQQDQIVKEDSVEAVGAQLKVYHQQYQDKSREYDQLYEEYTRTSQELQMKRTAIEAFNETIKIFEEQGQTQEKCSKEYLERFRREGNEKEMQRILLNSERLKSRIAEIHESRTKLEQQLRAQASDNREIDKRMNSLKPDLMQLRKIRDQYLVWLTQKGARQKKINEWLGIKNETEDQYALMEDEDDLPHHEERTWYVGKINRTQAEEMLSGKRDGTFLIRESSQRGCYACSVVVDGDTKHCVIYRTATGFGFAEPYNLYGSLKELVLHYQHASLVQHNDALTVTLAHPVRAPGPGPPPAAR

B1: FLAG-tagged wild type p110δ (protein, UniProt O00329 1-1044)
chain: MPPGVDCPMEFWTKEENQSVVVDFLLPTGVYLNFPVSRNANLSTIKQLLWHRAQYEPLFHMLSGPEAYVFTCINQTAEQQELEDEQRRLCDVQPFLPVLRLVAREGDRVKKLINSQISLLIGKGLHEFDSLCDPEVNDFRAKMCQFCEEAAARRQQLGWEAWLQYSFPLQLEPSAQTWGPGTLRLPNRALLVNVKFEGSEESFTFQVSTKDVPLALMACALRKKATVFRQPLVEQPEDYTLQVNGRHEYLYGSYPLCQFQYICSCLHSGLTPHLTMVHSSSILAMRDEQSNPAPQVQKPRAKPPPIPAKKPSSVSLWSLEQPFRIELIQGSKVNADERMKLVVQAGLFHGNEMLCKTVSSSEVSVCSEPVWKQRLEFDINICDLPRMARLCFALYAVIEKAKKARSTKKKSKKADCPIAWANLMLFDYKDQLKTGERCLYMWPSVPDEKGELLNPTGTVRSNPNTDSAAALLICLPEVAPHPVYYPALEKILELGRHSECVHVTEEEQLQLREILERRGSGELYEHEKDLVWKLRHEVQEHFPEALARLLLVTKWNKHEDVAQMLYLLCSWPELPVLSALELLDFSFPDCHVGSFAIKSLRKLTDDELFQYLLQLVQVLKYESYLDCELTKFLLDRALANRKIGHFLFWHLRSEMHVPSVALRFGLILEAYCRGSTHHMKVLMKQGEALSKLKALNDFVKLSSQKTPKPQTKELMHLCMRQEAYLEALSHLQSPLDPSTLLAEVCVEQCTFMDSKMKPLWIMYSNEEAGSGGSVGIIFKNGDDLRQDMLTLQMIQLMDVLWKQEGLDLRMTPYGCLPTGDRTGLIEVVLRSDTIANIQLNKSNMAATAAFNKDALLNWLKSKNPGEALDRAIEEFTLSCAGYCVATYVLGIGDRHSDNIMIRESGQLFHIDFGHFLGNFKTKFGINRERVPFILTYDFVHVIQQGKTNNSEKFERFRGYCERAYTILRRHGLLFLHLFALMRAAGLPELSCSKDIQYLKDSLALGKTEEEALKHFRVKFNEALRESWKTKVNWLAHNVSKDNRQ
- binding: binds
